Three molecules from paper doi:10.1101/2021.01.19.427293 can be followed below.

Protein sequences, listed by entry. Tags and fused reporters are not part of them. Residues count along the entry.
UniProt C0LGT6, residues 25-1031: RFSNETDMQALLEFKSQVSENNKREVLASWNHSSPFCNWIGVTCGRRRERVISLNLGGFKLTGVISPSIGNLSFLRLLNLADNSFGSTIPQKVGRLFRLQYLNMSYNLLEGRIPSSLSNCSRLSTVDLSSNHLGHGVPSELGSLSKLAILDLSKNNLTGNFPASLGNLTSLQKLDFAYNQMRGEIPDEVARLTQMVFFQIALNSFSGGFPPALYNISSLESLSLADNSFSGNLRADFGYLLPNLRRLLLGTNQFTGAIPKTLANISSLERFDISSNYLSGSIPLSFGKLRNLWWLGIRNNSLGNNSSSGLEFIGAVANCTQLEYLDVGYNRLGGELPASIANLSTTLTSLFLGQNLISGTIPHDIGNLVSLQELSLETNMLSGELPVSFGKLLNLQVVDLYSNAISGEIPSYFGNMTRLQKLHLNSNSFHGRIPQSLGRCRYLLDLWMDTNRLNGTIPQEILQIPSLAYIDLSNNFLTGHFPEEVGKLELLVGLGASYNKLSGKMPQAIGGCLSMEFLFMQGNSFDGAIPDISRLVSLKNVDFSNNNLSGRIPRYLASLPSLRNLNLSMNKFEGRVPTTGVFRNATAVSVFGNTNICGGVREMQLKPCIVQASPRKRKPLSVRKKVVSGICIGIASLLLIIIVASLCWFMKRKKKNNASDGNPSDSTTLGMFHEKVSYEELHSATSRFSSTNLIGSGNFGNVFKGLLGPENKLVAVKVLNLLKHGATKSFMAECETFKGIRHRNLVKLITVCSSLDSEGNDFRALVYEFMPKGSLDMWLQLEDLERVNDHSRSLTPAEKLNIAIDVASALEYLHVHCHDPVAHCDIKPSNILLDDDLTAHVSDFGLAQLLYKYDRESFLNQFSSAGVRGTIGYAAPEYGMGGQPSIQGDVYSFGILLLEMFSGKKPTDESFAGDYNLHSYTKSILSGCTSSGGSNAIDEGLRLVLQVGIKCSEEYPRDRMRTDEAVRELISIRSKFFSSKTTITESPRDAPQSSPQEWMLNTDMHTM

Common to all, as to test: co-IP
The target in experiment [1] is ELONGATION FACTOR TU RECEPTOR (EFR)-GFP (Arabidopsis thaliana) (UniProt C0LGT6).
In experiment [2] the target is … SENSING 2 (FLS2)-GFP (Arabidopsis thaliana) (UniProt Q9FL28).
Experiment [3] has as its target T1, CLAVATA 1 (CLV1), GFP-tagged (Arabidopsis thaliana) (UniProt Q9SYQ8).
T1 sequence: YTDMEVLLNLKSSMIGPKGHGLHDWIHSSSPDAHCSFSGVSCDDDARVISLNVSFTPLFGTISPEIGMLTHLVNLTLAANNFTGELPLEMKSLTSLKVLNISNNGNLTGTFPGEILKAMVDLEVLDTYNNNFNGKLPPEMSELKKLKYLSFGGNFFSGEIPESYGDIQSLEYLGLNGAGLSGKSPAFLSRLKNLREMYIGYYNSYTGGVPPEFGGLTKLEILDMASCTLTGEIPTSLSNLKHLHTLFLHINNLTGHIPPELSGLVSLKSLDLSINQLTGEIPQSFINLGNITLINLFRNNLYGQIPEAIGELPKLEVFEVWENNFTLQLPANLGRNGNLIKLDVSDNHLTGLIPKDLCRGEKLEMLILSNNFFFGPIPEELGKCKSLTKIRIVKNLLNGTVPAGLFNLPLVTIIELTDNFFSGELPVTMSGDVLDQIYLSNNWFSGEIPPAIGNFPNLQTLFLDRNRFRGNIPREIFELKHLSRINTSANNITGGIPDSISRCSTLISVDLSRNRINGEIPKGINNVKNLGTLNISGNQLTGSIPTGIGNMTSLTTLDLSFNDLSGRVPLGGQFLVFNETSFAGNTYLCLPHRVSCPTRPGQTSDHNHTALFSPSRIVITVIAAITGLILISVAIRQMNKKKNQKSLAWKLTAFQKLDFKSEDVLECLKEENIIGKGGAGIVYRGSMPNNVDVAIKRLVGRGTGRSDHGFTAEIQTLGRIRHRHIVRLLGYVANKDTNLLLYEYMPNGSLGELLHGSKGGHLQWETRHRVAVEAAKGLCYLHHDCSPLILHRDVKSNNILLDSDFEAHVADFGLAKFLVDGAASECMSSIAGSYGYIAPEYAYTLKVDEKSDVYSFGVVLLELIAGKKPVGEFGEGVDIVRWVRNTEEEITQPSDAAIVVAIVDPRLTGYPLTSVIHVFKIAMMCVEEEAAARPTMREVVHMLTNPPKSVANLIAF

Experiment [4] addresses T2, BARELY ANY MERISTEM 3 (BAM3)-GFP (Arabidopsis thaliana) (UniProt O65440).
T2 sequence: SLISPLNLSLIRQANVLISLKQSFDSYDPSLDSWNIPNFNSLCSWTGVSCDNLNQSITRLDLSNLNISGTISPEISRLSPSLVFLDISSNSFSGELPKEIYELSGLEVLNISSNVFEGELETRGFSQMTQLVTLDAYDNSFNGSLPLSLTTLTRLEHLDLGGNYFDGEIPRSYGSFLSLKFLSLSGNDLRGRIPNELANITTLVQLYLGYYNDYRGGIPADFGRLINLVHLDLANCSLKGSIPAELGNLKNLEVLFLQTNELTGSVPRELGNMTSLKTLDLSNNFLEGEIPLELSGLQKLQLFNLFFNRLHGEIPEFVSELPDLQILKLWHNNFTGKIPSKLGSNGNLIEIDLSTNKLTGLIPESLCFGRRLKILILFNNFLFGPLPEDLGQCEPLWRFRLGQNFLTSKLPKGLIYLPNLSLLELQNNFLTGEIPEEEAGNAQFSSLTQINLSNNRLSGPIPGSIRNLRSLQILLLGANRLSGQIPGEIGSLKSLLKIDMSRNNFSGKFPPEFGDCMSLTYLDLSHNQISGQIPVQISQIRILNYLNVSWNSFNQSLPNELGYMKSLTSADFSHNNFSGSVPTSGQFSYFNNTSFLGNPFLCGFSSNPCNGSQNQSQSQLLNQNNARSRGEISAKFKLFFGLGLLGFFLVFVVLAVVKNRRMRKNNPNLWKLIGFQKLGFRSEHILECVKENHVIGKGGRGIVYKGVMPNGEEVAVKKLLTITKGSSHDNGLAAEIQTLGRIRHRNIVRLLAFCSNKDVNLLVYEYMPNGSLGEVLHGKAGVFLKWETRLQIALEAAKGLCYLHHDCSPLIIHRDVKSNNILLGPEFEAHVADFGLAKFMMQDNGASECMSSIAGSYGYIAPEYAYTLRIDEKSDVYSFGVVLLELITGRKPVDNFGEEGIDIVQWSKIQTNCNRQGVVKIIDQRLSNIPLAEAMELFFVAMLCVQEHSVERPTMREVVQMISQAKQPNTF

These are yes or no findings as the source states them, for the method shown. Binding seen in cells or lysates may run through a third protein. Some binding calls cover weakened binding; strength is not graded here. Sequences can lack the tags named with a protein.

B1: PO…-LIKE 4 (PLL4), HA-tagged (enzyme, UniProt Q9ZV25 1-654)
chain: MGNGIGKLSKCLTGGAGRNKKPELSILEPDPLDEGLGHSFCYVRPDPTRVSSSKVHSEEETTTFRTISGASVSANTATPLSTSLYDPYGHIDRAAAFESTTSFSSIPLQPIPRSSGPIVPGSGPLERGFLSGPIERGFMSGPLDGSSGPIDGKTGSDQFQRSFSHGLANLRVGSRKGSLVRVLRRAISKTITRGQNSIVAPIKPVKEPDWVFGSDKTRIHQIENNLTVNSLNFSSEGSLLDDDVSLESQNLQWAQGKAGEDRVHVVVSEEHGWLFVGIYDGFNGPDAPDYLLSHLYPAVHRELKGLLWDDPKTDAKSSDEADVENRDSSSEKKSKNWEESQRRWRCEWDRDLDRLLKDRSNGLDLDPDPNSSDVLKALSQALRKTEEAYLENADMMLDENPELALMGSCVLVMLMKGEDVYLMNVGDSRAVLGQKAESDYWIGKIKQDLERINEETMNDFDGCGDGEGASLVPTLSAFQLTVDHSTNVEEEVNRIRKEHPDDASAVSNERVKGSLKVTRAFGAGFLKQPKWNNALLEMFQIDYKGTSPYINCLPSLYHHRLGSKDQFLILSSDGLYQYFTNEEAVSEVELFITLQPEGDPAQHLVQELLFRAAKKAGMDFHELLEIPQGERRRYHDDVSIVVISLEGRMWKSCV
On to B1, for which the binding result in experiment [1] and in experiment [2] was “binds” throughout.

B2: PO… (POL), HA-tagged (enzyme, UniProt Q8RWN7 1-856)
chain: MGNGTSRVVGCFVPSNDKNGVDLEFLEPLDEGLGHSFCYVRPSIFESPDITPSNSERFTIDSSTIDSETLTGSFRNDIVDDPSFLNRHNSKGLAETTFKAISGASVSANVSTARTGNQMALCSSDVLEPAASFESTSSFASIPLQPLPRGGSGPLNGFMSGPLERGFASGPLDRNNGFMSGPIEKGVMSGPLDVSDRSNFSAPLSFRRKKPRFQRFMRSVSGPMKSTLARTFSRRSGGLSWMHRFFLHPETRVSWAVGKDGKLHGEDPESCLESNRNLQWAHGKAGEDRVHVVLSEEQGWLFIGIYDGFSGPDAPDFVMSHLYKAIDKELEGLLWDYEEPSEDNQLQPDQEPPTEENMCDPESISEQHSKSVVAESEEVMIDDISSLGNTDTQIADGPPGDSAGPGKKSMRLYELLQLEQWEGEEIGLKRYGGNVALNNMTNQVENPSTSGGGAGNDPCTTDRSALDGIPNSGQRHGTKKSQISSKIRRMYQKQKSLRKKLFPWSYDWHREEGICVEEKIVESSGPIRRRWSGTVDHDAVLRAMARALESTEEAYMDMVEKSLDINPELALMGSCVLVMLMKDQDVYVMNVGDSRAILAQERLHDRHSNPGFGNDEGIGHKSRSRESLVRIELDRISEESPIHNQATPISVSNKNRDVTSYRLKMRAVQLSSDHSTSVEEEIWRIRSEHPEDDQSILKDRVKGQLKVTRAFGAGFLKKPNFNEALLEMFQVEYIGTDPYITCEPCTVHHRLTSSDRFMVLSSDGLYEYFSNEEVVAHVTWFIENVPEGDPAQYLIAELLSRAATKNGMEFHDLLDIPQGDRRKYHDDVSVMVVSLEGRIWRSSGQYYPERKQKFNR
Turning to B2, the binding entry in experiment [3] and in experiment [4] was “binds” each time.

B3: PO…-LIKE 5 (PLL5), HA-tagged (enzyme, UniProt Q9LQN6 1-662)
chain: MGNGVTKLSICFTGGGGERLRPKDISVLLPDPLDEGLGHSFCYVRPDPTLISSSKVHSEEDTTTTTFRTISGASVSANTATPLSTSLYDPYGHIDRAAAFESTTSFSSIPLQPIPKSSGPIVLGSGPIERGFLSGPIERGFMSGPLDRVGLFSGPLDKPNSDHHHQFQRSFSHGLALRVGSRKRSLVRILRRAISKTMSRGQNSIVAPIKSVKDSDNWGIRSEKSRNLHNENLTVNSLNFSSEVSLDDDVSLENQNLQWAQGKAGEDRVHVVVSEEHGWLFVGIYDGFNGPDAPDYLLSHLYPVVHRELKGLLWDDSNVESKSQDLERSNGDESCSNQEKDETCERWWRCEWDRESQDLDRRLKEQISRRSGSDRLTNHSEVLEALSQALRKTEEAYLDTADKMLDENPELALMGSCVLVMLMKGEDIYVMNVGDSRAVLGQKSEPDYWLAKIRQDLERINEETMMNDLEGCEGDQSSLVPNLSAFQLTVDHSTNIEEEVERIRNEHPDDVTAVTNERVKGSLKVTRAFGAGFLKQPKWNNALLEMFQIDYVGKSPYINCLPSLYHHRLGSKDRFLILSSDGLYQYFTNEEAVSEVELFITLQPEGDPAQHLVQELLFRAAKKAGMDFHELLEIPQGERRRYHDDVSIVVISLEGRMWKSCV
As for B3, the binding result in experiment [1] and in experiment [2] was “binds” in each case.
